# According to the supplement of paper PMC10849652:
# Chains of the proteins cited; added tags and fusions are not shown. Lines headed by an entry give the natural chain unless they say otherwise; changes in a name come on top.
# UniProt Q8N5X7: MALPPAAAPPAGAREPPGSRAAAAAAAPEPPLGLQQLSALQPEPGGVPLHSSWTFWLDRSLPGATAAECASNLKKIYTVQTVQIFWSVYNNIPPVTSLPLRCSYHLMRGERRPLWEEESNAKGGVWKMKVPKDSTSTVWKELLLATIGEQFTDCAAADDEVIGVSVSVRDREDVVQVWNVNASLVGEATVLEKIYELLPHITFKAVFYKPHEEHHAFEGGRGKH
# UniProt P19419: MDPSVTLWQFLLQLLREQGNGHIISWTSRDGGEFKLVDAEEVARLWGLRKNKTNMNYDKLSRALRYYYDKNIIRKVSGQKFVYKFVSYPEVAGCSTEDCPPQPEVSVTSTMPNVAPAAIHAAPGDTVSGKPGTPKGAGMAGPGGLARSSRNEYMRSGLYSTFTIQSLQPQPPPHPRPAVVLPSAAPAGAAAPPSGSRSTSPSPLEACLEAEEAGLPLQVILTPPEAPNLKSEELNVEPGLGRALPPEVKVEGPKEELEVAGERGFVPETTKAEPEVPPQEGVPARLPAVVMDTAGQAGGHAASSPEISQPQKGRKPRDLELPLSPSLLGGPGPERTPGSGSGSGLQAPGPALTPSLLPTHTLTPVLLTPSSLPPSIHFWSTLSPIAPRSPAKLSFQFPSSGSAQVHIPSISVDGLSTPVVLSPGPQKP
# This is one part of the list.
# Legend:
# Test in all cases: log2 fold change, soluble protein after heating vs DMSO (PISA); higher = thermal stabilisation; K562 cells, 10 uM, 30 min; active = over 0.2 and 3.5 SD of the protein, either way, in both replicates (recomputed)
# [1] = compound: CC1=C(C=C(C=C1)NC(=O)C2=CC(=CC=C2)N(C)C)NC(=O)C3=CC=C(C=C3)O
# Outline: (§1)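 Values are thermal stability changes relative to control samples and are taken from duplicates. They are stated as log2 fold changes. Before quantification by TMTpro 16plex LC-MS/MS with equalised channel sums, K562 cells at 2×10^6 cells/mL were treated with 10 μM compound for 30 min, heated in aliquots for 3 min across 48°C-58°C, pooled, extracted in PBS with 0.5% NP-40 at 4°C, and centrifuged at 21,000xg for 90 min to give the soluble supernatant.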
# [2] = compound: CC1=NC(=CC=C1)C2=C(N=C(N2)C(C)(C)C)C3=CC4=NC=CN=C4C=C3
# Outline: as §1
# givinostat = compound: CCN(CC)Cc1ccc2cc(COC(=O)Nc3ccc(C(=O)NO)cc3)ccc2c1 [givinostat]
# Outline: as §1
Target,log2 fold change [1],log2 fold change [2],log2 fold change (givinostat)
EIF4E3 (UniProt Q8N5X7),inactive: 0.021,inactive: -0.026,inactive: 0.026
ELK1 (UniProt P19419),–,inactive: 0.012,–
"EPB41, A0A2R8Y783",–,inactive: -0.113,–
